Some of the results follow.

By UniProt entry, the sequences of proteins in these tests, tags left out.
UniProt Q0JBA9, entry or part of it: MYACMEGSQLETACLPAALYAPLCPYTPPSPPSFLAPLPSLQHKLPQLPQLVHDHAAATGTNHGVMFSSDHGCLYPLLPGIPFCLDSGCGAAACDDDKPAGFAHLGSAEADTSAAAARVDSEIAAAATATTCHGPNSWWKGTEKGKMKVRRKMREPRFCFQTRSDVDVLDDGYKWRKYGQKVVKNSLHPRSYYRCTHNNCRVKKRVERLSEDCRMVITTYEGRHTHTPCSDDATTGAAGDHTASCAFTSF

These results are taken from publication PMC7819943, “Rice protein-binding microarrays: a tool to detect cis-acting elements near promoter regions in rice”.

The test deals with OsWRKY34 (Oryza sativa, UniProt Q0JBA9 1-250). Kind of test: protein-binding microarray (RPBM); PBS, 2% BSA, 51.3 ng/ul salmon testes DNA, 50 uM zinc acetate, 200 nM TF, 25 C, 1 h; high values mean tight binding. The conditions noted are these: protein: recombinant; tags: N-terminal polyhistidine and DsRed monomer fusion (pET32a); label: CyDye5-dUTP incorporated in the synthesized complementary strand; 3' TTTTT single-stranded linker to array surface; dsDNA, one strand shown. In a few lines: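 The binding signal for each feature is its fluorescence intensity in arbitrary units. An Axon 4000B scanner was used to read a custom Agilent array that had been made double-stranded with Cy5-dUTP primer extension, blocked with 2% BSA, incubated at 25 °C for 1 h with 200 nM protein in PBS, 2% BSA, salmon testes DNA and 50 µM zinc acetate, and washed. The protein was an N-terminal polyhistidine–DsRed transcription factor fusion from E. coli BL21-CodonPlus, purified on Ni–NTA.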
For “CTTGGTTGTTTAATTTGTTTGTTTGCTTTAGCTCTGCTCCCGGAGTCACCTAGTGCAG”, the binding signal is 8310 fluorescence intensity (a.u.).

For the sequence “GCAGAGAAACGAAGGGTTGACTTTTGGACAGTTCATACACCGGAGTCACCTAGTGCAG”, the binding signal was 11400 fluorescence intensity (a.u.).

For “CTCATTGCATCCCAGTTAGGTCTTCATCACACATGACACACGGAGTCACCTAGTGCAG”, the binding signal was 10500 fluorescence intensity (a.u.).

With “GGTAGTCTAGGCCCAACTTCTCCGACGCTCCGAAACAGCCCGGAGTCACCTAGTGCAG”, the binding signal was 8710 fluorescence intensity (a.u.).

Consider “CTTACGAAAAATCCCAGTAGGACACATCACGCCCGTTTCCCGGAGTCACCTAGTGCAG”, for which the binding signal is 8730 fluorescence intensity (a.u.).

For “ATGACTCATTTTCTGCGCGCACGCTTCACAAATTACTAAACGGAGTCACCTAGTGCAG”, the binding signal is 8780 fluorescence intensity (a.u.).

Regarding “TTTATGTAATGCCTTAAGATCACACATTGACTTATTTTTGCGGAGTCACCTAGTGCAG”, the binding signal is 8050 fluorescence intensity (a.u.).

For “TCTACGCCGCCGGCGGCGGCGGCGGCGGCAACTGCGGCGCCGGAGTCACCTAGTGCAG”, the binding signal was 47800 fluorescence intensity (a.u.).

Take “GTCCCCACTACTGCTCATCATTCCATCGATTATTCTTGCCCGGAGTCACCTAGTGCAG”: the binding signal was 15100 fluorescence intensity (a.u.).

For the sequence “GTCCGGCGGTTCGCTGATCCACTCTCTCGTTTTTTTGTTTCGGAGTCACCTAGTGCAG”, the binding signal is 9640 fluorescence intensity (a.u.).

With “TGCTAAACCTGTGGTGTTAAATCTGGCTGGTTGCCTGTCTCGGAGTCACCTAGTGCAG”, the binding signal was 9280 fluorescence intensity (a.u.).

Regarding “GTCGAGGAATCATTTCACCTCTGCCTCTTGTCAGCTTCGCCGGAGTCACCTAGTGCAG”, the binding signal was 11000 fluorescence intensity (a.u.).

“GCGTTGGTGGCTTCTCGGTGATGTTTTTATTTTTCTTCCCCGGAGTCACCTAGTGCAG”: the binding signal was 11800 fluorescence intensity (a.u.).

With “GGGTAGTTGTTGGCCAAGTAGGCTGGCGTCCGCGCTTTTCCGGAGTCACCTAGTGCAG”, the binding signal is 8780 fluorescence intensity (a.u.).

On to “GCTGTCCTTGCCTGGAGCTCGAGCTCTGAGCTACAGCTGCCGGAGTCACCTAGTGCAG”, for which the binding signal is 9120 fluorescence intensity (a.u.).

With “GTCCTCCTTCGCCGCTTACCACGCCGCCTCTATCTCCGCCCGGAGTCACCTAGTGCAG”, the binding signal is 10400 fluorescence intensity (a.u.).

Take “CGTCTCGTCTCTGTCTCTCGGCCCACCGCTTCCATCGTTCCGGAGTCACCTAGTGCAG”: the binding signal is 14900 fluorescence intensity (a.u.).

As to “TTCAACTTTGATTTATGCAATATTCACCGTTTATCCTAGACGGAGTCACCTAGTGCAG”, the binding signal was 8970 fluorescence intensity (a.u.).

With “TCATATATGAGTTTGTGGGTGTGGGTGTTTGCGAGCTTTTCGGAGTCACCTAGTGCAG”, the binding signal was 30700 fluorescence intensity (a.u.).

Take “AAGCCGCCATCACCACCAGTGCCGTGATCATCATACACAGCGGAGTCACCTAGTGCAG”: the binding signal is 9580 fluorescence intensity (a.u.).

For “CCGATTCCAAATGTTCTCATCCTTATTCTTATCGACTTTTCGGAGTCACCTAGTGCAG”, the binding signal was 8940 fluorescence intensity (a.u.).

Turning to “GCCCCAGCTTATCTGTCCACCTCACTCAGTCTCATCCCCACGGAGTCACCTAGTGCAG”, the binding signal was 8440 fluorescence intensity (a.u.).

As for “AGTCCTATTTCCACTGTTTATATGAAAAAAAAGCTACTTCCGGAGTCACCTAGTGCAG”, the binding signal is 8430 fluorescence intensity (a.u.).

Take “CGTTTGTCTCGCCATCTCTTAATTCCTTACGTTGACCATTCGGAGTCACCTAGTGCAG”: the binding signal is 14500 fluorescence intensity (a.u.).

Turning to “GGTTGGTAGAGATAATTAGTACAGATCCTTCTCTTTTTCTCGGAGTCACCTAGTGCAG”, the binding signal was 13300 fluorescence intensity (a.u.).

Consider “TTGTCCGTCCTCACATCACCTTGCCGCCCTCGGGATCTACCGGAGTCACCTAGTGCAG”, for which the binding signal was 10500 fluorescence intensity (a.u.).

Turning to “ATCTATTATTCCGCACTCTAGCGCTACCGTAAACATTTCTCGGAGTCACCTAGTGCAG”, the binding signal is 10800 fluorescence intensity (a.u.).

Consider “TGAACTGTACTATTAAACTTTCTCTTATGTATTGGGCTGTCGGAGTCACCTAGTGCAG”, for which the binding signal is 9360 fluorescence intensity (a.u.).

With “TCCCATCTTCGGTGACATCCTGTCTTTGCTTCTTAACTATCGGAGTCACCTAGTGCAG”, the binding signal was 10900 fluorescence intensity (a.u.).

Turning to “TGGTTCTTTGTGTTATTCTCCTGTTGCCTGCCCCGAACAACGGAGTCACCTAGTGCAG”, the binding signal is 11200 fluorescence intensity (a.u.).

For the sequence “GACTTAGGGTGTGTTTGGTTCGTGGTCAAGGCTGGATAGGCGGAGTCACCTAGTGCAG”, the binding signal is 10500 fluorescence intensity (a.u.).

Turning to “CGGCGTGGGAGGGGTCGATGGGGCGCTTGGCGGCGGCGGCCGGAGTCACCTAGTGCAG”, the binding signal was 9660 fluorescence intensity (a.u.).

Take “TATTAATTCCAACAGCCATGCTTTATAATATCTCATCTCTCGGAGTCACCTAGTGCAG”: the binding signal was 8710 fluorescence intensity (a.u.).

Take “ATCTCTCATGCTGTCATGCTTGTGGTGCACCTAGCAATTCCGGAGTCACCTAGTGCAG”: the binding signal is 11700 fluorescence intensity (a.u.).

As for “GCTATATGCAATGCTTGTTTCCATGGTTCTTCTAGGTACACGGAGTCACCTAGTGCAG”, the binding signal was 10700 fluorescence intensity (a.u.).

Take “AGGTGAGAGGAGGAGAGAGACGGGTTTAGGGCTTTAGGAGCGGAGTCACCTAGTGCAG”: the binding signal was 8040 fluorescence intensity (a.u.).

With “TTTTAACAATGCCGTTGTATTTTGGTTTGGTTGTGAGAATCGGAGTCACCTAGTGCAG”, the binding signal was 8980 fluorescence intensity (a.u.).

As to “TCTGTAGTACTCCACATCATACGCTGGCTGGACGTCATTACGGAGTCACCTAGTGCAG”, the binding signal is 8030 fluorescence intensity (a.u.).

Take “TCAATCAACATCATTATATTAATCCATATTTACCCTATTTCGGAGTCACCTAGTGCAG”: the binding signal is 8160 fluorescence intensity (a.u.).

Take “ACACCCGGCTGCTACCGCACCTTTATTTACAGCTCCTCCTCGGAGTCACCTAGTGCAG”: the binding signal is 8800 fluorescence intensity (a.u.).

“GAATTTATCCATGGTATGCGTCTACTAAGTGGTGATTCCTCGGAGTCACCTAGTGCAG”: the binding signal is 8050 fluorescence intensity (a.u.).

“ACGTGTCACCTTCTTATTCGCTGGGTTTTTTCTGGTGGGTCGGAGTCACCTAGTGCAG”: the binding signal was 8770 fluorescence intensity (a.u.).

Consider “CTCACTCCACGCACCATTTTCTTCTTCTTCTTCTTCGTCTCGGAGTCACCTAGTGCAG”, for which the binding signal is 11400 fluorescence intensity (a.u.).

“CGTTGACTTTTCTAAACATGTTTGACCGTTCGTCTTATTCCGGAGTCACCTAGTGCAG”: the binding signal was 28400 fluorescence intensity (a.u.).

On to “TTAACATAACCATGGCTCAACATTCAAGTTCTCTCTTCTCCGGAGTCACCTAGTGCAG”, for which the binding signal is 8660 fluorescence intensity (a.u.).

In the case of “CCATTGGTTCCCTTTCCAATTTCACCTCGCCCAACCCTATCGGAGTCACCTAGTGCAG”, the binding signal was 8500 fluorescence intensity (a.u.).

For the sequence “TTTTTCCAACACTTGACTACCCATCTTACTTAAATTTTTTCGGAGTCACCTAGTGCAG”, the binding signal is 9960 fluorescence intensity (a.u.).

On to “GATGTTCTCCCTATGAATTTGCTGCTCTGATCCCAGGTCTCGGAGTCACCTAGTGCAG”, for which the binding signal is 8220 fluorescence intensity (a.u.).

Take “ATGCTCTGATATTTTCATGTGTTCTTTTTTTTTCTTCTTTCGGAGTCACCTAGTGCAG”: the binding signal was 9140 fluorescence intensity (a.u.).

Take “TGACCATGAAATTTCACGATAGCACTACAGCAACGACGGCCGGAGTCACCTAGTGCAG”: the binding signal is 8420 fluorescence intensity (a.u.).

As for “TAATCATGTTTGCTGAATAATTAATTGTTTGCCGTCTGCTCGGAGTCACCTAGTGCAG”, the binding signal was 9200 fluorescence intensity (a.u.).

For the sequence “ACCTTTTCTCTTTCTCTCTTCTATGTCCACTGCCGAGAGGCGGAGTCACCTAGTGCAG”, the binding signal is 11000 fluorescence intensity (a.u.).

“TCCCCGCCTACACGACCAGTTCCTGGTTTCTGCTGCCTTCCGGAGTCACCTAGTGCAG”: the binding signal was 8220 fluorescence intensity (a.u.).

Take “GCACATTACTCGCCTCCGCCGTTTTGGATTCTTCCCTGATCGGAGTCACCTAGTGCAG”: the binding signal is 9380 fluorescence intensity (a.u.).
